{"source": "patent US20240018151A1", "about": "“NOVEL INHIBITORS OF PIKFYVE AND METHODS USING SAME” (priority 2020, published 2024)", "test_system": "PIK3CA, PIP4K2A, PIP4K2B, PIP4K1A, PIP4K1B, PIP4K1C, PIP5KL1", "assay": "Comparative Kinase Assays (selectivity versus other lipid kinases)", "format": "biochemical", "description": "Briefly, 4× compound solution and 4×ATP solution are prepared with assay buffer (50 mM MOPS, 1 mM DTT, pH7.2). 4× Substrate solution and 4× kinase/Metal solution are prepared with MOPS based buffer containing individual kinase specific additives. Then, […] of 4× compound solution, 5 μL of 4× Substrate solution, 5 μL of 4×ATP solution, and 5 μL of 4× kinase/Metal solution are mixed and incubated in a well of polystyrene 384 well black microplate for 1 hour at room temperature. Next, 20 μL of ADP-Glo™ Reagent (Promega) is added to the well, and incubated for over 40 minutes. 40 μL of Kinase Detection Reagent (Promega) is added to the well, and incubated for over 40 minutes. The kinase reaction is evaluated by the endpoint luminescence of the well.\nTo determine whether the compounds are selective, the assay is repeated using appropriate substrates for different test enzymes:\nThe compounds of Examples 1, 3 and 6 are tested against these enzymes: […]", "note": "At least one compound was matched to its structure with a doubt left."}
{"molecule": "Brc1cccc(-c2ccn(-c3cc(N4CCOCC4)n4nc(-c5ccncc5)cc4n3)n2)c1", "note": "[Ex. 3]", "values": [{"measurement": "Fold Selectivity for PIKFYVE", "value": ">50-fold"}]}
